Measurements: paper PMC9977887, “Crocodile defensin (CpoBD13) antifungal activity via pH-dependent phospholipid targeting and membrane disruption” (Nature Communications, 2023)

Assay: Chemical crosslinking with BS(PEG)5 in the presence of PA
Conditions: SDS-PAGE

Substance: CpoBD13: saltwater crocodile β-defensin 13, histidine-rich, three disulphide bonds, recombinantly expressed in Pichia pastoris (NGSYYSTLQCRNNHGHCRRLCFHGEQWIGNCNGRHQHCCK)
- oligomeric state after crosslinking (0 and 23 µM PA): clear dimers
- oligomeric state after crosslinking (115 µM PA): multimeric complexes up to the size of pentamers
